# These are yes or no findings as the source states them, for the method shown. In cells and extracts the contact can be indirect. Some binding calls cover weakened binding; strength is not graded here. For part of these data: Sequences can lack the tags named with a protein.
# By UniProt entry, the sequences of proteins in these tests, tags left out.
# UniProt P30052: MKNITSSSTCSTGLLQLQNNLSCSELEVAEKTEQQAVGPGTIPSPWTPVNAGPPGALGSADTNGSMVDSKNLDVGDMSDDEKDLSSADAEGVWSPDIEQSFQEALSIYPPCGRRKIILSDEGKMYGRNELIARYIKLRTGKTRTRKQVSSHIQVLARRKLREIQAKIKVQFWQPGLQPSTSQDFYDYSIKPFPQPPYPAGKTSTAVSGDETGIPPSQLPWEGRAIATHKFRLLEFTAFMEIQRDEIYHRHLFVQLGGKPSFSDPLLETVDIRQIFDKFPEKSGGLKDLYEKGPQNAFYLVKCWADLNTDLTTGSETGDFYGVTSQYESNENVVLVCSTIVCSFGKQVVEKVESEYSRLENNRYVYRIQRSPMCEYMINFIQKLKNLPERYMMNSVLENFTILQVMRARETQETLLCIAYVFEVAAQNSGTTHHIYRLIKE
# UniProt Q06330: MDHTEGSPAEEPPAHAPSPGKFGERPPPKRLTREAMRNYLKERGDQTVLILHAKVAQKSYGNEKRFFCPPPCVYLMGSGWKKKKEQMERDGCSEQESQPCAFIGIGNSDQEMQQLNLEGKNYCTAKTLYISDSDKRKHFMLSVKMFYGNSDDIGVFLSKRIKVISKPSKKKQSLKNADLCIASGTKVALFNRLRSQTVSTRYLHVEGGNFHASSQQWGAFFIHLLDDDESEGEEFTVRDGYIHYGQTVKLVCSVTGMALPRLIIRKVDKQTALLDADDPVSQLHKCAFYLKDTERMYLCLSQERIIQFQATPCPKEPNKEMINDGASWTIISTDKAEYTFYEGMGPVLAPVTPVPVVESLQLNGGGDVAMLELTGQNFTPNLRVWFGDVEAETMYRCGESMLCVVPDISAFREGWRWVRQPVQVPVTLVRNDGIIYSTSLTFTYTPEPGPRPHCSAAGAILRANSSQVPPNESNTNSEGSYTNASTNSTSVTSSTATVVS
# UniProt P28159: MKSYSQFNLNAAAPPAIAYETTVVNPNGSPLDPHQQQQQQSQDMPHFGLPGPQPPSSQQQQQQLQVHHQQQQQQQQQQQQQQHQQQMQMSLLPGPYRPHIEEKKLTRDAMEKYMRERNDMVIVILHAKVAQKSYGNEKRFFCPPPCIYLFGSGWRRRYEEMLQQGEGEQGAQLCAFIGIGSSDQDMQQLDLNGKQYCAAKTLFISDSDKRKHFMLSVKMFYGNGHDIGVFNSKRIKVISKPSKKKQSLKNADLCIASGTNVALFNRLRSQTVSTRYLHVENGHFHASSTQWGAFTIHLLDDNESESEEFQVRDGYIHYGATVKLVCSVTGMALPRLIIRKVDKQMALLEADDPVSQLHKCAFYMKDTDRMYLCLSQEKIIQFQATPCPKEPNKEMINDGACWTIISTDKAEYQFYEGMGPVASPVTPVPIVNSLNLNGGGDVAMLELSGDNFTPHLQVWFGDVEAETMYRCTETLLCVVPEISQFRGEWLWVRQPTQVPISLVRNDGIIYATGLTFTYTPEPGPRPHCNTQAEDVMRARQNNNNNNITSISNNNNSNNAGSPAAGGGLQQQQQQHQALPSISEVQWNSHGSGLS
# UniProt Q9GZV5: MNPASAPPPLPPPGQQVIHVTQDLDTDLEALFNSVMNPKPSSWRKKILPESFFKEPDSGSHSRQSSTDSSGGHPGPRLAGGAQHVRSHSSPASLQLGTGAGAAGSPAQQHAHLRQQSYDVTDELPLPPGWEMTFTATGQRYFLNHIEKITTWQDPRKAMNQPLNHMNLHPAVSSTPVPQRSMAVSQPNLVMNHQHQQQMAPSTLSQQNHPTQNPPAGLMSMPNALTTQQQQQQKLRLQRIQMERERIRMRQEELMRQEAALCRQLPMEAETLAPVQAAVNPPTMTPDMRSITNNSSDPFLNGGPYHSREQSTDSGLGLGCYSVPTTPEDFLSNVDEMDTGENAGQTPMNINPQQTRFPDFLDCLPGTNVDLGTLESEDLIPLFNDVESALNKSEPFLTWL
# UniProt P46937: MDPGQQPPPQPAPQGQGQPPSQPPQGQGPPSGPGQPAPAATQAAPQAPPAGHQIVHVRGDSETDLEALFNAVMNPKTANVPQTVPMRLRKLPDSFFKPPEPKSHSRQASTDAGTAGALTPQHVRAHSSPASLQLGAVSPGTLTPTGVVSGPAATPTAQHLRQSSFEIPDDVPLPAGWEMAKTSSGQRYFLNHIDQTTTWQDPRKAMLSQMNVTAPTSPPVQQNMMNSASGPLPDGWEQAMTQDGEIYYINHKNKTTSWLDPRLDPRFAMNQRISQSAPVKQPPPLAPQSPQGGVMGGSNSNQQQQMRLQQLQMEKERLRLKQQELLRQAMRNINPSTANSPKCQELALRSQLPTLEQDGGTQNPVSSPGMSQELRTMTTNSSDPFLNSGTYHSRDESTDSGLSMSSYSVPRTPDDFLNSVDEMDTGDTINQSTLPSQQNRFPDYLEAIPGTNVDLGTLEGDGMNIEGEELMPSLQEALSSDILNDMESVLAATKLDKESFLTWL
# T1: Flag-tagged E75 (Eip75B, A isoform), UAS-E75^Flag (Drosophila melanogaster) (UniProt P17672)
# T1 sequence: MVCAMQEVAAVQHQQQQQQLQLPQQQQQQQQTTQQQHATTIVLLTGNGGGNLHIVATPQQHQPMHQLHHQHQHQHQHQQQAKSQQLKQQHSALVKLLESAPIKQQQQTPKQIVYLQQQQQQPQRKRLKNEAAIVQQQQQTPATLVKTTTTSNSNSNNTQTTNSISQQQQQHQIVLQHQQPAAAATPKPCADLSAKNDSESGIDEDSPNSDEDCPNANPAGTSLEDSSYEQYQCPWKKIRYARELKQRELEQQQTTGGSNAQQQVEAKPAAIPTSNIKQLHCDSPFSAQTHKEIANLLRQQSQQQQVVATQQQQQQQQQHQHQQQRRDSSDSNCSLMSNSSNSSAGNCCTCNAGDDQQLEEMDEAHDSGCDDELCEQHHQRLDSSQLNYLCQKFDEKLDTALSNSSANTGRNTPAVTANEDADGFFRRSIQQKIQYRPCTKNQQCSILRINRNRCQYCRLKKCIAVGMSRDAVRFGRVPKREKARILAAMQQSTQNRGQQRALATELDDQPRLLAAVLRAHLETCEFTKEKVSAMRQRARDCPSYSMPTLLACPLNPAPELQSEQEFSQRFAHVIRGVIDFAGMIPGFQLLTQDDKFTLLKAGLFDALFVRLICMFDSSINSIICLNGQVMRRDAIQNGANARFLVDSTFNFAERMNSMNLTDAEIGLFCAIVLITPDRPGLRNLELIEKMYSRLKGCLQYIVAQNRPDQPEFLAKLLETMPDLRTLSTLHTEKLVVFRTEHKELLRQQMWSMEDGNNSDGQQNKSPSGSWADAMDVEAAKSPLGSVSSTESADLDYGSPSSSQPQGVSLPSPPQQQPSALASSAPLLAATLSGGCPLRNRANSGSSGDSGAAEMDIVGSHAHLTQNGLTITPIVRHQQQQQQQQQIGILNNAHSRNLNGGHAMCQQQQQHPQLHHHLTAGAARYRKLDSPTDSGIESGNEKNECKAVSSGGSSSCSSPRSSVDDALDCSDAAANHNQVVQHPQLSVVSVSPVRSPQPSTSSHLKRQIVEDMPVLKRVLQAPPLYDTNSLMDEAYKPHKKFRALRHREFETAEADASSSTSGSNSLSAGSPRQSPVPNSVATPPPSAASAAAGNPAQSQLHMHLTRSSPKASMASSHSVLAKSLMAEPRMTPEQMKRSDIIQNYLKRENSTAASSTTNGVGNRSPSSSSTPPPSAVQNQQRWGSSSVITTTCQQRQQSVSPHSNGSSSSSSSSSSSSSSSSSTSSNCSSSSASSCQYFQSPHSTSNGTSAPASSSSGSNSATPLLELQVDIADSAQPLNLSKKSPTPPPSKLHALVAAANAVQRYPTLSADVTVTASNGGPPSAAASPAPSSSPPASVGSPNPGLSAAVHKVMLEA
# T2: NR1D2 (nuclear receptor subfamily 1 group D member 2), endogenous (human (endogenous in MGG6 and U87 MG)) (UniProt Q14995)
# T2 sequence: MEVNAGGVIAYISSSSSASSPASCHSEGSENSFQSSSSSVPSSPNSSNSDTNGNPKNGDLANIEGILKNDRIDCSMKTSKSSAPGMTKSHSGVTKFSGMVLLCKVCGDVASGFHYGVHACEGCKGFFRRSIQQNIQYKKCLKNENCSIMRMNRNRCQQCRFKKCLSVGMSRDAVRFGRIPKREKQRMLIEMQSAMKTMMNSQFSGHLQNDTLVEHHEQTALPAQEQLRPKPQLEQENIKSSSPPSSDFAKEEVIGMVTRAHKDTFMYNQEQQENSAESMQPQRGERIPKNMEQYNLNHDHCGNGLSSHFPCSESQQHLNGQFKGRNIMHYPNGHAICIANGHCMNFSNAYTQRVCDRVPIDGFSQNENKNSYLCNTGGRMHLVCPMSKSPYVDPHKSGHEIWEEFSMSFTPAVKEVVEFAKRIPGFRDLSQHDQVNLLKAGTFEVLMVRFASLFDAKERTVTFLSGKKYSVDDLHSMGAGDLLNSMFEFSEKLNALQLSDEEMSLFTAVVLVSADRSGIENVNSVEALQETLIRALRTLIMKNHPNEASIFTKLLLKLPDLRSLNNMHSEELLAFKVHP
# T3: NR1D2-HA (UniProt Q14995)
# T3 sequence: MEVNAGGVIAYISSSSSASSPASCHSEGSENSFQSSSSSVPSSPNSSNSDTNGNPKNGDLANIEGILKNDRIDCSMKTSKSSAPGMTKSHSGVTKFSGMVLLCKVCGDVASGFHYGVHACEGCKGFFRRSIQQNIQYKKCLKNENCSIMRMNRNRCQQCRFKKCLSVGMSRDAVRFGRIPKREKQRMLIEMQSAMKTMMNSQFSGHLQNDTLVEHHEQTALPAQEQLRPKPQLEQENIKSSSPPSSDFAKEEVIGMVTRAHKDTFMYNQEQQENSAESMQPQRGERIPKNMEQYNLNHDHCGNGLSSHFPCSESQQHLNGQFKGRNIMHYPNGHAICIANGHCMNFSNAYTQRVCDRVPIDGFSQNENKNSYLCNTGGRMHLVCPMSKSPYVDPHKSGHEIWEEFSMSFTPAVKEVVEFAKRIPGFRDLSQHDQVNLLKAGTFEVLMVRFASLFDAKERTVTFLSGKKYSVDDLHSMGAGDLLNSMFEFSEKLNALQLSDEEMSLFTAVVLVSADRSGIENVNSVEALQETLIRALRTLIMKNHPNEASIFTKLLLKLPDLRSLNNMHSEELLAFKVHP
# B1: Myc-tagged Yki (UAS-yki^Myc) (protein, UniProt Q45VV3 1-395)
# chain: MLTTMSASSNTNSLIEKEIDDEDMLSPIKSNNLVVRVNQDTDDNLQALFDSVLNPGDAKRPLQLPLRMRKLPNSFFTPPAPSHSRANSADSTYDAGSQSSINIGNKASIVQQPDGQSPIAAIPQLQIQPSPQHSRLAIHHSRARSSPASLQQNYNVRARSDAAAANNPNANPSSQQQPAGPTFPENSAQEFPSGAPASSAIDLDAMNTCMSQDIPMSMQTVHKKQRSYDVISPIQLNRQLGALPPGWEQAKTNDGQIYYLNHTTKSTQWEDPRIQYRQQQQILMAERIKQNDVLQTTKQTTTSTIANNLGPLPDGWEQAVTESGDLYFINHIDRTTSWNDPRMQSGLSVLDCPDNLVSSLQIEDNLCSNLFNDAQAIVNPPSSHKPDDLEWYKIN
# B2: Yki, overexpressed (UAS-Yki) (protein, UniProt Q45VV3 1-395)
# chain: MLTTMSASSNTNSLIEKEIDDEDMLSPIKSNNLVVRVNQDTDDNLQALFDSVLNPGDAKRPLQLPLRMRKLPNSFFTPPAPSHSRANSADSTYDAGSQSSINIGNKASIVQQPDGQSPIAAIPQLQIQPSPQHSRLAIHHSRARSSPASLQQNYNVRARSDAAAANNPNANPSSQQQPAGPTFPENSAQEFPSGAPASSAIDLDAMNTCMSQDIPMSMQTVHKKQRSYDVISPIQLNRQLGALPPGWEQAKTNDGQIYYLNHTTKSTQWEDPRIQYRQQQQILMAERIKQNDVLQTTKQTTTSTIANNLGPLPDGWEQAVTESGDLYFINHIDRTTSWNDPRMQSGLSVLDCPDNLVSSLQIEDNLCSNLFNDAQAIVNPPSSHKPDDLEWYKIN
# What was measured:
# [1] = target: T1, Flag-tagged E75 (Eip75B, A isoform), UAS-E75^Flag (Drosophila melanogaster); test: proximity ligation; Duolink in situ PLA on fixed eye-antennal discs with ey-Flp-MARCM-induced clones that overexpress E75^Flag (alone or with Yki and Sd^HA)
# [2] = target: T1, Flag-tagged E75 (Eip75B, A isoform), UAS-E75^Flag (Drosophila melanogaster); test: proximity ligation; Duolink in situ PLA on fixed Drosophila wing discs expressing the tagged or untagged transgenes; primary antibodies from mouse and rabbit; controls without primary antibodies
# [3] = target: T1, Flag-tagged E75 (Eip75B, A isoform), UAS-E75^Flag (Drosophila melanogaster); test: co-IP; lysates (NP40 buffer with PMSF) of ey-Flp-MARCM-induced eye epithelial tumors expressing Sd^HA, E75^Flag and Yki (Fig. 5D,E) or Notch^act, E75^Flag and Yki (Fig. 5F,G); primary antibody or conjugated magnetic beads overnight at 4 °C; western blot
# [4] = target: T2, NR1D2 (nuclear receptor subfamily 1 group D member 2), endogenous (human (endogenous in MGG6 and U87 MG)); test: proximity ligation; Duolink in situ PLA on fixed U87 MG cells; mouse anti-NR1D2 with a rabbit antibody to the partner; endogenous proteins
# [5] = target: T2, NR1D2 (nuclear receptor subfamily 1 group D member 2), endogenous (human (endogenous in MGG6 and U87 MG)); test: proximity ligation; Duolink in situ PLA on fixed MGG6 glioblastoma stem cells; mouse anti-NR1D2 with a rabbit antibody to the partner; endogenous proteins
# [6] = target: T3, NR1D2-HA; test: co-IP; lysates (NP40 buffer with PMSF) of U87 MG cells stably transfected with NR1D2-HA; immunoprecipitated and probed for endogenous TEAD, TAZ, NICD1 and RBPJ
Molecule,binding [1],binding [2],binding [3],binding [4],binding [5],binding [6]
HA-tagged Sd (UAS-Sd^HA) (from UniProt P30052 1-440),binds,binds,binds,,,
"RBPJ, endogenous (from UniProt Q06330 1-500)",,,,binds,binds,binds
"Suppressor of Hairless [Su(H)], endogenous (from UniProt P28159 1-594)",binds,,binds,,,
"TAZ, endogenous (from UniProt Q9GZV5 1-400)",,,,binds,binds,binds
"Yap, endogenous (from UniProt P46937 1-504)",,,,binds,binds,
B1,,binds,,,,
B2,,,binds,,,

# Reference: PMC11649922
